The inconclusive results got no clear call from the source; some entries with a clear call stand among them for comparison. Where the call is inconclusive, the potency comes from a doubtful curve fit. Activity calls are given as the source filed them. How the source made its calls: active means hit-call score of the fitted dose curve at least 0.9, where 1 is the maximum; inconclusive means response in the unintended direction; inactive means score below 0.9.
The compounds below were run against human Peroxisome Proliferator-activated Receptor delta (PPARd), PPARD (gene 5467) (UniProt Q03181) (assay: ERF_US_NR_hPPARD: Eurofins (ERF) Nuclear Receptor (NR) Cell Based Protein-Protein Interaction LeadHunter Assay for human Peroxisome Proliferator-activated Receptor delta (PPARd) Agonism).
Protocol: ERF_US_NR_hPPARD is a cell-based, single-readout assay that uses extracted gene-proteins in a cell-line assay. Measurements were taken 5 hours after chemical dosing in a 384-well plate. See PPARdelta Human NHR Cell Based Agonist Protein-Protein Interaction Assay, DiscoverX.ERF_US_NR_hPPARD is an assay component calculated from the ERF_US_NR_hPPARD assay. It is designed to measure radioligand binding using a type of binding reporter as detected by scintillation counting with radiometry technology.Data from the assay component ERF_US_NR_hPPARD was analyzed at the assay endpoint, ERF_US_NR_hPPARD, in the positive analysis fitting direction relative to DMSO as the negative control and baseline of activity. Using a type of binding reporter, gain-of-signal activity can be used to understand changes in binding as they relate to gene PPARD. To generalize the intended target to other relatable targets, this assay endpoint is annotated to the nuclear receptor intended target family, where the subfamily is non-steroidal.
Cells were seeded in a total volume of 20 uL into white walled, 384-well microplates and incubated at 37C overnight prior to testing. Briefly, intermediate dilution of sample stocks was performed to generate 5X sample in assay buffer. 5 uL of 5X sample was added to cells and incubated at 37C for 300 minutes. […] The results are expressed as a percent efficacy of the control ligand.

Sequences of proteins named here, by UniProt entry; tags and fusion partners are left off. A change or cut given only in a name is not applied to a line headed by its entry.
UniProt Q03181: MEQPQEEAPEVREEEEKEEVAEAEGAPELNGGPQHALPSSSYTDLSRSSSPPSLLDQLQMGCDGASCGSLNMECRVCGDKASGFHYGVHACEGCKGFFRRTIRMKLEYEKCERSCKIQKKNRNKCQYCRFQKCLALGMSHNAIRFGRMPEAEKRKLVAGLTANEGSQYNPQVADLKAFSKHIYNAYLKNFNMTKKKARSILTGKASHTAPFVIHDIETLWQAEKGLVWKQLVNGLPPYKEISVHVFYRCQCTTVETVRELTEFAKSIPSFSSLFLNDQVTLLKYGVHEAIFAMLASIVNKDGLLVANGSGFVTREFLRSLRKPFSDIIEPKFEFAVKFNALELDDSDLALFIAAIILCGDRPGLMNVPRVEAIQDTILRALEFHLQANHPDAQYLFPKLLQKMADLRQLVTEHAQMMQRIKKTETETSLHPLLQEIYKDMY

SMILES | outcome | AC50
O=C(CC(=O)C(F)(F)C(F)(F)C(F)(F)F)c1cccs1 | inactive | –
CC(C)(Oc1ccc(C(=O)c2ccc(Cl)cc2)cc1)C(=O)O | – | inconclusive: 19.1 µM

From PubChem BioAssay AID2284374 (EPA ToxCast)
